Measured values: PubChem BioAssay AID493014 (National Center for Advancing Translational Sciences (NCATS), 2011)
The list shows a part of the results. The main result of the screen is listed elsewhere. These columns were measured beside it and carry no call. The list favours compounds with an active or inconclusive main result. The note in brackets gives the kind of curve behind each potency; many fits are weak.

Assay: qHTS Assay to Find Inhibitors of Chronic Active B-Cell Receptor Signaling
Details: ABC-DLBCL IkBa-CBG/CBR reporter, luminescence ratio (green luciferase fused to IkBa over red control in TMD8 lymphoma cells), 4 h
How it was run: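 TMD8 ABC-DLBCL cells carrying doxycycline-inducible green luciferase fused to IkappaBalpha plus unfused red luciferase were exposed to compounds (up to 46 uM) for 4 hrs at 37C. Activity came from the overlap-corrected green/red luminescence ratio.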

[1] = measured here: CBR red luminescence, cell number
[2] = measured here: IkBa-CBG green luminescence

CCOc1ccc(OCCCCNCCN)cc1
AC50 [1]: 6.51 µM [rising, single point]

COc1ccc(N=C(N)SCc2ccccn2)cc1
AC50 [1]: 23.1 µM [falling, partial curve, poor fit]

O=C(N/N=C/c1cccc(Oc2ccccc2)c1)c1ccc(O)cc1O
AC50 [1]: 4.47 µM [falling, partial curve, poor fit]

CCN(CC(=O)Nc1ccc2c(c1)OCCO2)Cc1cc(=O)oc2cc(C)c(C)cc12
AC50 [1]: 0.259 µM [rising, partial curve, poor fit]
AC50 [2]: 23.1 µM [falling, single point]

COc1ccc(N2C(=O)CC(Sc3ncccc3C(=O)O)C2=O)cc1 (centres undefined)
AC50 [1]: 32.6 µM [rising, single point]

O=C(Nc1ccccc1F)c1ccco1
AC50 [1]: 20.6 µM [falling, partial curve, poor fit]

Cc1ccc(CNC(=O)C(=O)NCC2OCCN2S(=O)(=O)c2ccc3c(c2)OCCO3)cc1 (centres undefined)
AC50 [1]: 2.91 µM [rising, full curve, poor fit]

Cn1c(CSCc2ccc(F)cc2)nnc1SCC(=O)Nc1cccc(C(=O)O)c1
AC50 [1]: 17.8 µM [rising, single point]

Cc1ccc2cccc(SCC(=O)Nc3ccc(F)cc3)c2n1
AC50 [1]: 2.51 µM [falling, partial curve, poor fit]

Cc1ccc(-c2cc(-c3ccc(C)cc3O)[nH]n2)cc1
AC50 [1]: 5.01 µM [falling, partial curve]

COc1ccc(C(=O)NCCC2=CCCCC2)cc1[N+](=O)[O-]
AC50 [1]: 28.2 µM [rising, partial curve, poor fit]

O=C(NCCCn1ccnc1)c1ccncc1
AC50 [1]: 11.2 µM [rising, partial curve, poor fit]

COc1ccc(NC(=O)CSc2c3c(nc4cc(Cl)ccc24)CCCC3)cc1OC
AC50 [1]: 11.6 µM [falling, partial curve]

O=C(NN=Cc1ccc(O)cc1O)c1ccccc1NS(=O)(=O)c1cccs1
AC50 [1]: 16.4 µM [falling, partial curve]

CC(C)(C)n1cnc2cc(NC(=O)c3cccs3)ccc21
AC50 [1]: 15.8 µM [falling, single point]

Cc1ccc(S(=O)(=O)N2CCN(C(=O)COC(=O)CNC(=O)c3ccccc3)CC2)c(C)c1
AC50 [1]: 9.2 µM [rising, partial curve]

OC(CNCC1(N2CCCCC2)CCCCC1)COc1ccc(Cl)cc1Cl (centres undefined)
AC50 [1]: 35.5 µM [falling, single point]

COc1cccc(NC(=O)Nc2ccc3c(c2)nnn3C)c1
AC50 [1]: 5.17 µM [falling, full curve]

COc1cccc(/C=N/NC(=O)c2cccs2)c1
AC50 [1]: 11.2 µM [falling, partial curve, poor fit]

COc1ccc(CNC(=O)/C=C/c2ccco2)cc1OC
AC50 [1]: 35.5 µM [rising, single point]

CCn1cnc2sc(C(=O)Oc3cccc(C)c3)c(C)c2c1=O
AC50 [1]: 22.4 µM [rising, partial curve, poor fit]

CCNc1nc(NCC)nc(N/N=C/c2ccc(O)c(O)c2)n1
AC50 [1]: 35.5 µM [falling, single point]

Cc1ccc(C(=C2C3C=CC2C2C(=O)NC(=O)C32)c2ccc(C)cc2)cc1 (centres undefined)
AC50 [1]: 3.26 µM [rising, partial curve, poor fit]
AC50 [2]: 6.51 µM [falling, single point]

Cc1ccc(NC(=O)Nc2ccc(Cl)cc2)c(Br)c1
AC50 [1]: 0.651 µM [rising, full curve]

CCN=c1scc(-c2ccc(F)cc2)n1/N=C/c1ccccn1
AC50 [2]: 22.4 µM [falling, single point]

Cc1cc(C)nc(N/N=C/c2ccccc2OCc2cccc(Br)c2)n1
AC50 [1]: 20.6 µM [falling, single point]

COc1ccc(/C=C2\SC(=O)N(CCC(=O)N3CCN(C)CC3)C2=O)cc1
AC50 [1]: 5.62 µM [falling, partial curve]

CCOC(=O)C1=C(CN2CC(C)CC(C)C2)NC(=O)NC1c1ccc2c(c1)OCO2 (centres undefined)
AC50 [1]: 35.5 µM [rising, single point]

O=[N+]([O-])c1ccc2oc(-c3ccccc3)nc2c1
AC50 [1]: 1.12 µM [rising, partial curve, poor fit]

Cc1cc2n(n1)C(c1sccc1C)Nc1ccccc1-2 (centres undefined)
AC50 [1]: 6.31 µM [rising, single point]

CCCCC(=O)Nc1nc2c(OC)cc([N+](=O)[O-])cc2s1
AC50 [1]: 3.55 µM [falling, partial curve, poor fit]

Cc1ccc2nc(NC(=O)CCCC(=O)O)sc2c1
AC50 [1]: 0.316 µM [falling, full curve, poor fit]

CCc1nnc(NC(=O)c2nc(S(=O)(=O)Cc3cccc(C)c3)ncc2Cl)s1
AC50 [1]: 35.5 µM [falling, single point]

Cn1c(CN2CCCCC2)nc2cc(NC(=O)c3cccc(Br)c3)ccc21
AC50 [1]: 11.6 µM [falling, partial curve]

O=C(Nc1cccnc1)c1ccccc1-c1nc(-c2ccccc2F)no1
AC50 [1]: 13 µM [rising, partial curve, poor fit]

CC1=C(C)C(C)=C(C#N)C(=C(C#N)C#N)N1
AC50 [1]: 35.5 µM [falling, single point]

O=C(N/N=C/C(Cl)=C/c1ccccc1)c1ccco1
AC50 [1]: 12.6 µM [falling, partial curve, poor fit]

CCOc1ccccc1OCCCC(=O)Nc1sccc1C(N)=O
AC50 [1]: 8.2 µM [falling, partial curve]

COC(=O)c1ccc2c(c1)C(=O)N(C1CCCCC1)C2=O
AC50 [1]: 4.47 µM [rising, partial curve]

COc1cccc(/C=C/C(=O)c2cccc([N+](=O)[O-])c2)c1OC
AC50 [2]: 20 µM [falling, partial curve, poor fit]

CSc1ccccc1OCc1cc(C(=O)NCc2csc(C(C)C)n2)no1
AC50 [1]: 12.6 µM [falling, single point]

COc1ccc(Cl)cc1NC(=S)Nc1cccnc1
AC50 [1]: 35.5 µM [rising, single point]
